Test results from the M2OR odorant receptor database.
The list shows a part of the results. The calls were merged from several studies; some rest on single wells.

Chains of the proteins cited; added tags and fusions are not shown. Chains listed by the source or under a name are the forms on record and can include a tag or linker.
O52I2, as listed by the source: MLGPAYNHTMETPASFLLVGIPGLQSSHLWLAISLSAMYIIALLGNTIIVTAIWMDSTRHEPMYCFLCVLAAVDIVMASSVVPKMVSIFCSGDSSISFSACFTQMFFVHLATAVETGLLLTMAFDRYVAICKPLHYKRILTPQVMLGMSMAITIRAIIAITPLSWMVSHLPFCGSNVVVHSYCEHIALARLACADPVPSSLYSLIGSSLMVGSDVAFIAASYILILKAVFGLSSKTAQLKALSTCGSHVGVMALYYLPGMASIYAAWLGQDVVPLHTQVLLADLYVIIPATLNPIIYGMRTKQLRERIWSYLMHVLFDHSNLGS

Columns and labels:
Conditions in all cases: stereoisomer not certain
[1] = tested on: T1, O52I2
T1 sequence (whole entry): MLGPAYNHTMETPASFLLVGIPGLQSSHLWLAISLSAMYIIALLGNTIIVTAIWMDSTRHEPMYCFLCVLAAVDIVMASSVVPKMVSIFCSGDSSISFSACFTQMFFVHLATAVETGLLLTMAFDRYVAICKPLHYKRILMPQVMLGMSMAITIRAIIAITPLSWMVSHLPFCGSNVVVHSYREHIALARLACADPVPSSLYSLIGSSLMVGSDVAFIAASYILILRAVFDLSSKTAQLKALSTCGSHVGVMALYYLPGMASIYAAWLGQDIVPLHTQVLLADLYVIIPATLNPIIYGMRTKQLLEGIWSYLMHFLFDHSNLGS
Outline: (§1)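 Values were gathered from published papers (main text and supplementary material), with extra details requested from the original authors when needed, and checked for typos and inconsistencies. Each receptor–molecule pair is called responsive (active) if the original authors judged the measured signal statistically different from baseline, and non-responsive (inactive) otherwise. Assay methods varied by source, often transient mammalian cell-line luciferase assays. Recorded details include cell line, G-protein, co-transfected protein and tags.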

[2] = tested on: O52I2; remark: listed apart in the source
Outline: as §1

[3] = tested on: T2, O52J3
T2 sequence (whole entry): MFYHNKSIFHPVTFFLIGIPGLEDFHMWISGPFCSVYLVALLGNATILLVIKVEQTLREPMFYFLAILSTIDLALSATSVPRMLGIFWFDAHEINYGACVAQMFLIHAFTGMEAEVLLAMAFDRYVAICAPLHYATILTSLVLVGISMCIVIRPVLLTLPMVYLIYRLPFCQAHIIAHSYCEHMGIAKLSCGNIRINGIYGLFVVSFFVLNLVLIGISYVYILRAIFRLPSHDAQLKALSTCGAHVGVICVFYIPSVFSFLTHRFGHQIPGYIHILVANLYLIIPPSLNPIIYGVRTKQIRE
Outline: as §1

[4] = tested on: T3, O52L1
T3 sequence (whole entry): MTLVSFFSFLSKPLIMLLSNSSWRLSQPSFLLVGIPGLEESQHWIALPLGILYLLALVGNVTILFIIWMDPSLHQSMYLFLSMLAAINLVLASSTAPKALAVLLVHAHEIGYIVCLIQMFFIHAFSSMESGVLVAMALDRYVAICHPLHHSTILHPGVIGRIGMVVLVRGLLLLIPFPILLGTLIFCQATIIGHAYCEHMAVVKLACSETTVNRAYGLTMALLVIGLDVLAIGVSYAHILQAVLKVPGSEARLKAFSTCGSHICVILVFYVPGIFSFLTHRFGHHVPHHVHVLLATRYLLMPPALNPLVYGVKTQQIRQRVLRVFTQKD
Outline: as §1

[5] = tested on: T4, O52L2
T4 sequence (whole entry): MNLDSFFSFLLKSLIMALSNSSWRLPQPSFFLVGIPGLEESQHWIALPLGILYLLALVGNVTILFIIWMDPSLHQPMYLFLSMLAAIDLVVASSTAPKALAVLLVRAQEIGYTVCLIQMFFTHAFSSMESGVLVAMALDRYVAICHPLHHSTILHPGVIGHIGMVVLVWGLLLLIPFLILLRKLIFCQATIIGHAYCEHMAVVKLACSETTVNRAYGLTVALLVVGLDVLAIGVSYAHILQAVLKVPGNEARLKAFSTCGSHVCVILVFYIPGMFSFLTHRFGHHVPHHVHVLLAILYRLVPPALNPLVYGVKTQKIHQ
Outline: as §1

[6] = tested on: T5, O52M1
T5 sequence (whole entry): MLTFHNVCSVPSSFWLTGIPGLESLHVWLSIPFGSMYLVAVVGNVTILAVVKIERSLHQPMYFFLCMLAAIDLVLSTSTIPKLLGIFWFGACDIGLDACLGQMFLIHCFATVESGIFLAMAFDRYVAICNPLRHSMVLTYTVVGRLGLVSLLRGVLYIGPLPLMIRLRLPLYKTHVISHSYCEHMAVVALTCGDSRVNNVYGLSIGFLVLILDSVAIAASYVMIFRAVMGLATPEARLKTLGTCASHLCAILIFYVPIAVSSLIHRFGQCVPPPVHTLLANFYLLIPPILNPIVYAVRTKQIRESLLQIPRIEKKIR
Outline: as §1

[7] = tested on: T6, O52N1
T6 sequence (whole entry): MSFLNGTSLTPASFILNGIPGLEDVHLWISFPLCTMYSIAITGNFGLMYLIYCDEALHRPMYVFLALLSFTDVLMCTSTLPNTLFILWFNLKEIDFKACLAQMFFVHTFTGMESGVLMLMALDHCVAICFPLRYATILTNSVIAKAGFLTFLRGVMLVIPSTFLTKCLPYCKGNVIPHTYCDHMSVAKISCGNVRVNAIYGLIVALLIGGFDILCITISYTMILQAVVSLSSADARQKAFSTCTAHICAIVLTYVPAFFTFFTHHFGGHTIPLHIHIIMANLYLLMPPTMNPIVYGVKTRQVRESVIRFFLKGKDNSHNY
Outline: as §1

[8] = tested on: T7, O52N2
T7 sequence (whole entry): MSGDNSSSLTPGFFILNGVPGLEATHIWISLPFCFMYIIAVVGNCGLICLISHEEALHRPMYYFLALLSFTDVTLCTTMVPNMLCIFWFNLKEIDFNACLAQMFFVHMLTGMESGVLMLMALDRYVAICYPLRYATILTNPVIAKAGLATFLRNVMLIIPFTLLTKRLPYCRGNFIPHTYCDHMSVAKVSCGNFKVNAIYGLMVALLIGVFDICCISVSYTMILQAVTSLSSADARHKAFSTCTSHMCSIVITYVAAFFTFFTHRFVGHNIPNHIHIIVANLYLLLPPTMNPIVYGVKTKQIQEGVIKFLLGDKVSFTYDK
Outline: as §1

[9] = tested on: T8, O52N4
T8 sequence (whole entry): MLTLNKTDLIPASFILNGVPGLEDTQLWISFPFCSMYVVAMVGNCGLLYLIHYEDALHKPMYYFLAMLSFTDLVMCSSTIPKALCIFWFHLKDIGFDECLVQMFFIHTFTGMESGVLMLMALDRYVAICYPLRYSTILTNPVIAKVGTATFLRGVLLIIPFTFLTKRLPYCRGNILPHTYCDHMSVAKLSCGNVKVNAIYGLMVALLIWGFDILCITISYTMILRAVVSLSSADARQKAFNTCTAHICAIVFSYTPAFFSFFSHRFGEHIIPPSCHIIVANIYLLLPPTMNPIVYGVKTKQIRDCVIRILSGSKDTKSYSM
Outline: as §1

[10] = tested on: T9, O52P1
T9 sequence (whole entry): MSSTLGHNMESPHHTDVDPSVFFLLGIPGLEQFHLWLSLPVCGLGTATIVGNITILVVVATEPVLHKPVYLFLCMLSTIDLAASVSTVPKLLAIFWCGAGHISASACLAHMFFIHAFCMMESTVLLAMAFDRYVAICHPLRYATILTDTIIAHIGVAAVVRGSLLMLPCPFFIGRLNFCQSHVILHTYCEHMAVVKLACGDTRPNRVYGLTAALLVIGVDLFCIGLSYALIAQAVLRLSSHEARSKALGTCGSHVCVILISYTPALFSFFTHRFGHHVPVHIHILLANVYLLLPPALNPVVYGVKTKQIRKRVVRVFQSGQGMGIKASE
Outline: as §1

[11] = tested on: T10, O52R1
T10 sequence (whole entry): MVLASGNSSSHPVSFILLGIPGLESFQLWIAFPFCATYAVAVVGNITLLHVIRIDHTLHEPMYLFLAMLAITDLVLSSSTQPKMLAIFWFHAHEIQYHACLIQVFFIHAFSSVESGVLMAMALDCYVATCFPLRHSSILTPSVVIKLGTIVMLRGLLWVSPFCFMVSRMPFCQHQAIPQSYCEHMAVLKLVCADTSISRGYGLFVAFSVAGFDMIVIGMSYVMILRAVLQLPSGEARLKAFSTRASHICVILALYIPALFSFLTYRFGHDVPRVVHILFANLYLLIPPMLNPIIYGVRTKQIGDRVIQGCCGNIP
Outline: as §1

[12] = tested on: T11, O52W1
T11 sequence (whole entry): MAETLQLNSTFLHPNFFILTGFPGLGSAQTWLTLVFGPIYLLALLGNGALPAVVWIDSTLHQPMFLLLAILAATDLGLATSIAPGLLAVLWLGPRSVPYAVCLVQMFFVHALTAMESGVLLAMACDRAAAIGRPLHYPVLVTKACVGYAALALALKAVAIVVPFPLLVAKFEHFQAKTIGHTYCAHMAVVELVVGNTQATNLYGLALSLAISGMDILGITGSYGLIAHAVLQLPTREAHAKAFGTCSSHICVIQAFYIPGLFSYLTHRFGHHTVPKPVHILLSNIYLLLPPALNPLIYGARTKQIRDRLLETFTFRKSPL
Outline: as §1

[13] = tested on: T12, O56A3
T12 sequence (whole entry): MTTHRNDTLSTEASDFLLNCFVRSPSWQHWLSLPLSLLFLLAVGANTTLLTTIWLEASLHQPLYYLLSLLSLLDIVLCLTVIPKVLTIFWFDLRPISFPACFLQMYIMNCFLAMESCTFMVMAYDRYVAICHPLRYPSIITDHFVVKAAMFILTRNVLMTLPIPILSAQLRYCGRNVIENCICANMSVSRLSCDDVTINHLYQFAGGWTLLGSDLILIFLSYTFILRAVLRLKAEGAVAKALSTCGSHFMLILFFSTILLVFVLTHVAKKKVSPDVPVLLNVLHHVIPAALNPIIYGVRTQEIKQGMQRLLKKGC
Outline: as §1

[14] = tested on: T13, O56B1
T13 sequence (whole entry): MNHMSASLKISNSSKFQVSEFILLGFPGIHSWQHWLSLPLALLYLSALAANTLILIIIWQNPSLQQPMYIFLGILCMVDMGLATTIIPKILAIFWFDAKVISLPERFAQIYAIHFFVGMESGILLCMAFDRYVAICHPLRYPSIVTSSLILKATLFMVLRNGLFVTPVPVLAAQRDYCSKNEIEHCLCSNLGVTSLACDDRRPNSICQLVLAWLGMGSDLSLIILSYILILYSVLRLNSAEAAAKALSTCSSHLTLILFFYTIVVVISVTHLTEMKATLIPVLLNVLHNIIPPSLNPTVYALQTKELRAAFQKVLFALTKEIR
Outline: as §1

[15] = tested on: T14, O56B4
T14 sequence (whole entry): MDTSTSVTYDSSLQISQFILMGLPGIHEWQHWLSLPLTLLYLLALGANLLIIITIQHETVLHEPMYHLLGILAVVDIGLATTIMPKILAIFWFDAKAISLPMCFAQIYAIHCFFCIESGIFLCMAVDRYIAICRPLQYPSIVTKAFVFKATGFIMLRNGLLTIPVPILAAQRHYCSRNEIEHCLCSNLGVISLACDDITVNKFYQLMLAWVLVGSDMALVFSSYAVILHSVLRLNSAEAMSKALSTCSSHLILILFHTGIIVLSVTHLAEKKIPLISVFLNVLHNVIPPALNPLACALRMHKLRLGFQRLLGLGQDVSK
Outline: as §1

[16] = tested on: T15, O5AC2
T15 sequence (whole entry): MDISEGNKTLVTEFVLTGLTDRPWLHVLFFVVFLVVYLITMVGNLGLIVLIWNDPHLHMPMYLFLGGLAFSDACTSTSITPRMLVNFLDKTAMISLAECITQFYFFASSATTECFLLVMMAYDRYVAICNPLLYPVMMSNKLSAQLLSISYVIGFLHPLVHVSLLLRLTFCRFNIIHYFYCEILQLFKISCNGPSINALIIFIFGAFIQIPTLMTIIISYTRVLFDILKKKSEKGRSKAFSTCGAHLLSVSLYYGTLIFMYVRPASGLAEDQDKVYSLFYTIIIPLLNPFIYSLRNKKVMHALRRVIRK
Outline: as §1

[17] = tested on: T16, O5AK2
T16 sequence (whole entry): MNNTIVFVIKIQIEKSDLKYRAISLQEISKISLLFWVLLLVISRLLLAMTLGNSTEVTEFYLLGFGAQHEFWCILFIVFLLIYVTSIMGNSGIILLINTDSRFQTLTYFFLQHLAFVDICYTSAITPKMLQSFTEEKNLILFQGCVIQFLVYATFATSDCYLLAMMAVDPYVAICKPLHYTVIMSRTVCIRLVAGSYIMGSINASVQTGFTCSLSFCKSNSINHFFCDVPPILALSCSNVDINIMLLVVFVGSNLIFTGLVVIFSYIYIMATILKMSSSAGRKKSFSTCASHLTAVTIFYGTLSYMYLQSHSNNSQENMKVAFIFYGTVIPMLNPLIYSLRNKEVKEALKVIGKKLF
Outline: as §1

[18] = tested on: T17, O5AK3
T17 sequence (whole entry): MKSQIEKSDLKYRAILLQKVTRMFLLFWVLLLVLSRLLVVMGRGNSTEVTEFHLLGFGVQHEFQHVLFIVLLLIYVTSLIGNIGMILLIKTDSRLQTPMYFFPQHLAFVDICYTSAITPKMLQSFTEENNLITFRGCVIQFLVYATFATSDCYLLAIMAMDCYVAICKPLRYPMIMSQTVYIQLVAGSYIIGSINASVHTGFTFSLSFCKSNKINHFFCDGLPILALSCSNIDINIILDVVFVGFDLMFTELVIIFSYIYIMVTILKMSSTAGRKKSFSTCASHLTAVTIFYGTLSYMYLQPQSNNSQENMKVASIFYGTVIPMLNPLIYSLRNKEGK
Outline: as §1

Measured: odorant receptor agonist call

CCCCCCCCCC=O
inactive: all assays above

CC(=O)C(C)=O
not listed: [2]
inactive: all other assays above

CCCCCC(C)=O
not listed: [2] | [3] | [4] | [8] | [9] | [11] | [12]
inactive: all other assays above
